Assay results published in patent publication US8063181B2 (ZYRUS Beteiligungsgesellschaft mbH & Co. Patent I KG, priority 2003, dated 2011).

Assay: general procedure: peptide synthesis; DCC/HOBt (leaving group coupling)
Details: late stage modification step

## Ac-E[dOrn]Y[dT]E[dA]PQ[dY]I-OH
  step yield: between 70 and 80%

[ ]: non-standard residue; d: D form. dOrn = NCCC[C@@H](N)C(=O)O
